Paper PMC9249791, “Molecular dissection of the glutamine synthetase-GlnR nitrogen regulatory circuitry in Gram-positive bacteria” (Nature Communications, 2022)
No constants are given. Whether binding was seen depends on the method and setting. A result given as binding can be weak or reduced; the word gives no strength. Each block holds one substance with its values, some of them ahead of it.

Legend:
[1] = target: T1, Sa GlnR C-tail peptide (S. aureus); experiment: cryo-EM structure; GS (0.75-1.0 mg/mL) with 2.5 or 5 mM GlnR C-tail peptide, 30 min at rt; Buffer B (12.5 mM Tris pH 7.5, 20 mM glutamine, 5 mM MgCl2, 150 mM NaCl, 2.5% glycerol, 1 mM BME); both purified
T1 sequence (peptide): KPIGETLPINRGDLSRFIK

[2] = target: T2, Lm GlnR C-tail peptide (L. monocytogenes); experiment: as above
T2 sequence (peptide): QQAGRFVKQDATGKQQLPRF

[3] = target: T3, Pp GlnR C-tail peptide (P. polymyxa); experiment: as above
T3 sequence (peptide): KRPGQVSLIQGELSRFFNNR

[4] = target: T4, fluoresceinated Sa GlnR C-tail peptide (S. aureus); experiment: fluorescence polarisation; increasing Sa GlnR(1-87) titrated into 1 nM N-terminally fluoresceinated Sa GlnR C-tail peptide; both purified
T4 sequence (peptide, fluorescein on the N-terminus): KPIGETLPINRGDLSRFIK

Substance: Staphylococcus aureus glutamine synthetase (S. aureus) (enzyme)
binding [1]: binds

Substance: Listeria monocytogenes glutamine synthetase (L. monocytogenes) (enzyme)
binding [2]: binds

binding [3]: binds
Substance: Paenibacillus polymyxa glutamine synthetase (P. polymyxa) (enzyme)

Substance: Sa GlnR(1-87) (from UniProt Q53687) (domain or fragment)
binding [4]: binds
